Laboratory results published in PubChem BioAssay AID2685 (National Center for Advancing Translational Sciences (NCATS), 2010).
This is one part of the list. Shown are side measurements of this screen, not its main read-out; they come without a call. Most of these compounds were active or inconclusive in the main read-out, so they are no random draw. The note in brackets gives the kind of curve behind each potency; many fits are weak.

Assay: qHTS Assay for Lipid Storage Modulators in Drosophila S3 Cells;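 on cell number change: cells counted by Cell Tracker Red CMTPX staining in the red channel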
Conditions: BODIPY lipid droplet fluorescence, 18-24 h; for cell number change: measured here: cell count max response, cells fed with added oleic acid
How it was run: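 Laser-scanning cytometry quantifies lipid droplet accumulation (500–530 nm total intensity; droplet/cell object ratio) in oleic acid-fed (400 uM added) Drosophila S3 cells treated with a concentration series. 20 uM Triacsin C defined 100% inhibition.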

[1] = measured here: cell number channel AC50, cells fed with added oleic acid
[2] = measured here: lipid fluorescence (Fed channel) AC50, cells fed with added oleic acid

For `CN(C)C(=O)c1nc(C#N)c(N(C)C)o1`, the AC50 [1] was 0.651 µM [rising, single point] and the AC50 [2] was 0.58 µM [rising, single point].
With `CCOc1ccccc1C(=O)Nc1cnn(Cc2ccc(F)cc2)c1` the AC50 [1] was 2.06 µM [rising, partial curve].
For `CC1=NN(c2ccccc2)C(=O)/C1=C/C=C/c1ccc(N(C)C)cc1`, the cell number change was -58.2%, the AC50 [1] was 11.6 µM [falling, partial curve, poor fit] and the AC50 [2] was 14.6 µM [falling, partial curve].
In the case of `CC(=O)OCC1OC(OC(C)=O)C(NC(=O)c2cccnc2)C(OC(C)=O)C1OC(C)=O` (centres undefined), the AC50 [1] is reported as 0.461 µM [rising, single point].
In the case of `CC1=Nc2ccccc2/C1=C\c1nc(-c2ccccc2)oc1O`, the cell number change is reported as 20.4%, the AC50 [1] is reported as 1.64 µM [rising, full curve, poor fit] and the AC50 [2] is reported as 3.26 µM [rising, partial curve].
In the case of `CCOC(=O)c1snc2c(=O)[nH]cnc12`, the cell number change is reported as 5.8%, the AC50 [1] is reported as 5.17 µM [falling, partial curve, poor fit] and the AC50 [2] is reported as 1.64 µM [falling, partial curve].
For `COc1ccccc1N(CN1CCCC1=O)C(=O)c1c(F)cccc1Cl`, the cell number change was -67.9% and the AC50 [1] was 29.1 µM [falling, single point].
With `CC1CCCN(S(=O)(=O)Cc2ccc(Cl)cc2)C1` (centres undefined) the AC50 [1] was 0.146 µM [falling, full curve] and the AC50 [2] was 0.731 µM [falling, full curve].
For `CCCC(c1nnnn1CS(=O)(=O)c1ccc(C)cc1)N1CCN(c2ccc(F)cc2)CC1` (centres undefined), the AC50 [1] was 4.61 µM [rising, single point].
With `CCN(CC)c1ccc(NC(=O)c2c(OC)cccc2OC)c(C)c1` the cell number change was -19.1% and the AC50 [2] was 4.61 µM [rising, partial curve].
In the case of `O=C(NCC(=O)N1CCN(C(c2ccccc2)c2ccccc2)CC1)c1ccc(Br)o1`, the cell number change is reported as -22.3% and the AC50 [2] is reported as 0.58 µM [rising, single point].
With `CC(C)(C)c1csc(SCC(=O)Nc2ccc(Cl)cn2)n1` the cell number change was -55.5%, the AC50 [1] was 18.4 µM [falling, partial curve] and the AC50 [2] was 14.6 µM [falling, partial curve, poor fit].
With `Cc1cc(S(=O)(=O)NCC(c2ccc(F)cc2)N2CCN(C)CC2)ccc1F` (centres undefined) the cell number change was 1.35% and the AC50 [2] was 0.651 µM [falling, single point].
For `Cc1ccnc(SCCn2c(N3CC(C)CC(C)C3)nc3c2c(=O)n(C)c(=O)n3C)n1` (centres undefined), the cell number change was -17.2% and the AC50 [1] was 0.146 µM [rising, full curve, poor fit].
In the case of `COc1cccc(-c2cccc(NC(=O)C3CCN(Cc4cccc(C)n4)CC3)c2)c1`, the cell number change is reported as 24.9% and the AC50 [2] is reported as 29.1 µM [rising, single point].
In the case of `Cc1nc2c(-c3ccc(F)cc3)c(C)nn2c(C)c1CCC(=O)N1CCN(c2ccccn2)CC1`, the cell number change is reported as -1.76% and the AC50 [2] is reported as 20.6 µM [falling, single point].
With `COc1ccc(CC(=O)NNC(=O)c2cc(C)oc2C)cc1OC` the cell number change was -6.81% and the AC50 [2] was 0.731 µM [rising, single point].
For `CCOc1ccccc1CN1CCN(Cc2ccc3cccc(OC)c3n2)CC1CCO` (centres undefined), the AC50 [2] was 0.731 µM [rising, partial curve, poor fit].
Compound `CCC1=Nc2cc(C(=O)NCCN3CCOCC3)ccc2Sc2ccc(C)cc21` has a cell number change of -16.3%.
For `Oc1c(Cl)cc(Cl)cc1C1Nc2ccccc2-n2cccc21` (centres undefined), the cell number change was -34.8%, the AC50 [1] was 32.6 µM [falling, single point] and the AC50 [2] was 6.51 µM [falling, full curve, poor fit].
With `COc1ccccc1NC1=C(Cl)C(=O)N(C2CCCCC2)C1=O` the cell number change was 4.14%.
In the case of `CC(C)[C@@H](C(=O)N[C@@H](C(=O)O)c1ccccc1)N1C(=O)N2CCc3c([nH]c4ccccc34)[C@@]2(C)C1=O`, the cell number change is reported as 11.6% and the AC50 [2] is reported as 10.3 µM [rising, partial curve, poor fit].
For `N#CC1=C2N=C(N)c3ccccc3N2C2=C(C(=O)CCC2)C1c1ccc(F)cc1` (centres undefined), the cell number change was 17.5% and the AC50 [1] was 0.00517 µM [rising, full curve, poor fit].
Compound `Cc1cc(C)n(-c2nc(NCCCN(C)C)c3c4c(sc3n2)CCCC4)n1` has a cell number change of 3.86%.
With `CCCC(=O)Nc1ccc2c(c1)Cc1ccccc1-2` the cell number change was -15.9% and the AC50 [2] was 23.1 µM [rising, single point].
In the case of `S=C(Nc1ccccc1Cl)N(Cc1ccccc1)Cc1ccccn1`, the cell number change is reported as -3.64% and the AC50 [2] is reported as 2.31 µM [falling, single point].
With `CCC(C)(C)c1ccc(Oc2cccc(C(=O)O)c2)cc1` the cell number change was -7.44% and the AC50 [2] was 3.66 µM [falling, single point].
In the case of `CC(=O)Oc1ccc(C(=O)Nc2cccc(C(=O)c3cccc(NC(=O)c4ccc(OC(C)=O)cc4)c3)c2)cc1`, the cell number change is reported as 94.1%, the AC50 [1] is reported as 29.1 µM [rising, single point] and the AC50 [2] is reported as 20.6 µM [rising, partial curve].
For `COc1ccc(C2(c3ccc(OC)cc3)NC(=O)N(CC(=O)NC(C)C)C2=O)cc1`, the cell number change was 11.4%.
In the case of `OCCNc1nc2ccccc2n1CC(O)c1ccccc1` (centres undefined), the cell number change is reported as 14.3% and the AC50 [1] is reported as 1.3 µM [rising, full curve].
With `O=C(NCc1ccc(F)c(F)c1)C1CCC(=O)N(CCc2ccccc2)C1` (centres undefined) the cell number change was 28.5% and the AC50 [2] was 29.1 µM [rising, single point].
In the case of `O=C(NCC1CCCO1)c1cnn2c1NC(c1ccccc1)CC2C(F)(F)F` (centres undefined), the cell number change is reported as 12.4% and the AC50 [2] is reported as 3.66 µM [rising, partial curve, poor fit].
With `O=C(c1n[nH]c2ccccc12)N1CCN(S(=O)(=O)c2ccc(Cl)cc2)CC1` the cell number change was 2.6%, the AC50 [1] was 6.51 µM [falling, single point] and the AC50 [2] was 6.51 µM [falling, single point].
In the case of `CC(C)C1NC2(C(=O)c3ccccc3C2=O)C2C(=O)N(c3ccc(F)cc3)C(=O)C12` (centres undefined), the cell number change is reported as -32.8% and the AC50 [2] is reported as 29.1 µM [falling, single point].
For `CCCCN(C(=O)CCC(=O)Nc1cc(C)on1)C(C(=O)NC1CCCC1)c1ccccc1OCC` (centres undefined), the cell number change was -2.63% and the AC50 [1] was 0.58 µM [falling, full curve, poor fit].
With `CN(C)S(=O)(=O)c1ccc(Cl)c(C(=O)OCC(=O)NC(=O)NC2CCCC2)c1` the cell number change was -11.3%.
For `Cc1ccc(S(=O)(=O)NCCCCCC(=O)Nc2nccs2)cc1`, the cell number change was -7.34% and the AC50 [2] was 0.146 µM [rising, partial curve, poor fit].
For `COc1ccc(NC(=O)COC(=O)c2c(C)noc2C)c(OC)c1`, the cell number change was 85.2%, the AC50 [1] was 8.2 µM [rising, partial curve] and the AC50 [2] was 4.61 µM [rising, single point].
Work on `Cc1cc(C)c(OCC(=O)Nc2ccc(NC(=O)c3ccco3)cc2)c([N+](=O)[O-])c1` yielded a cell number change of -2.48%.
For `Cc1ccc(C(=O)CCC2CCCC2=O)cc1` (centres undefined), the cell number change was 18.3%.
For `Cc1ccc(NC(=O)C2CC(Cl)=CCC2C(=O)O)c([N+](=O)[O-])c1` (centres undefined), the cell number change was 0.249%.
For `CCOc1ccc(NC(=O)CC)cc1`, the cell number change was -9.24% and the AC50 [1] was 0.651 µM [rising, partial curve, poor fit].
For `CN(C)S(=O)(=O)c1cccc(C(=O)NC2CCSc3ccccc32)c1` (centres undefined), the cell number change was -5.95% and the AC50 [2] was 0.411 µM [rising, single point].
In the case of `Cc1ccc(CN(C)C(=O)C2CCCN2C(=O)c2cccs2)o1` (centres undefined), the cell number change is reported as 5.17% and the AC50 [2] is reported as 0.0517 µM [falling, full curve].
For `S=C(Nc1ccc(Oc2ccccc2)cc1)N1CCOCC1`, the cell number change was 33.3% and the AC50 [1] was 1.03 µM [rising, full curve, poor fit].
In the case of `CNC(=S)N1CCC(NC(=O)c2ccco2)CC1`, the cell number change is reported as -9.77% and the AC50 [2] is reported as 29.1 µM [falling, single point].
In the case of `Cc1ccc(S(=O)(=O)N2[C@@H](c3ccccc3F)C(C(=O)O)=CC[C@H]2c2ccc(Cl)c(Cl)c2)cc1`, the cell number change is reported as -48% and the AC50 [1] is reported as 20.6 µM [falling, single point].
With `COc1ccc(OCC(=O)OCCN(C)C)cc1` the cell number change was -34.5% and the AC50 [1] was 0.00517 µM [falling, full curve, poor fit].
In the case of `Cc1occc1-c1nnc(SCC(=O)N2CC(=O)Nc3ccccc32)n1CC(C)C`, the cell number change is reported as 7.8%.
With `FC(F)(F)c1cnc(C(c2ccccc2)c2ncn[nH]2)c(Cl)c1` (centres undefined) the cell number change was -19.1%, the AC50 [1] was 0.13 µM [falling, full curve, poor fit] and the AC50 [2] was 0.13 µM [falling, full curve, poor fit].
In the case of `Fc1ccc(-c2cnn3c(-c4cccs4)ccnc23)cc1`, the cell number change is reported as -24.4% and the AC50 [1] is reported as 0.164 µM [rising, full curve, poor fit].
Work on `CC1CN(C(=O)COC(=O)c2cc(S(N)(=O)=O)c(Cl)cc2Cl)CC(C)O1` (centres undefined) yielded a cell number change of 27.8%.
In the case of `COc1ccc(OCc2nnc(SCC(=O)N(C)Cc3ccccc3)n2N)cc1`, the cell number change is reported as 16.6% and the AC50 [2] is reported as 29.1 µM [falling, single point].
In the case of `CCc1ccc(CNC(=O)CCc2cn(C)c3ccccc23)cc1`, the cell number change is reported as 2.84%, the AC50 [1] is reported as 4.11 µM [rising, single point] and the AC50 [2] is reported as 0.103 µM [rising, full curve, poor fit].
In the case of `CCO/N=C/c1ccc(OC)c(Oc2nc(OC)cc(OC)n2)c1`, the cell number change is reported as 22.8% and the AC50 [2] is reported as 7.31 µM [rising, partial curve].
With `COCCN(Cc1cc2ccc(C)cc2[nH]c1=O)S(=O)(=O)c1ccccc1` the cell number change was -23.7% and the AC50 [1] was 0.092 µM [falling, full curve, poor fit].
In the case of `COCC(=O)Nc1cc([N+](=O)[O-])ccc1OC`, the cell number change is reported as 11.6% and the AC50 [2] is reported as 6.51 µM [rising, partial curve, poor fit].
With `CC1CC2(CCCC2)N(C(=O)N(C)C)c2ccc(F)cc21` (centres undefined) the cell number change was 14.1% and the AC50 [2] was 4.11 µM [rising, single point].
In the case of `CCN1CCN(C(=O)c2cc3c(s2)-c2c(C)cccc2OC3)CC1`, the cell number change is reported as 14.7% and the AC50 [2] is reported as 4.11 µM [falling, single point].
